Source: patent US7118889
No constants are given. Whether binding was seen depends on the method and setting. Some entries that bind do so weakly or less than the wild type. Sequences can lack the tags named with a protein.

Sequences of proteins named here, by UniProt entry; tags and fusion partners are left off. A change or cut given only in a name is not applied to a line headed by its entry. Residues count along the entry.
UniProt P62993: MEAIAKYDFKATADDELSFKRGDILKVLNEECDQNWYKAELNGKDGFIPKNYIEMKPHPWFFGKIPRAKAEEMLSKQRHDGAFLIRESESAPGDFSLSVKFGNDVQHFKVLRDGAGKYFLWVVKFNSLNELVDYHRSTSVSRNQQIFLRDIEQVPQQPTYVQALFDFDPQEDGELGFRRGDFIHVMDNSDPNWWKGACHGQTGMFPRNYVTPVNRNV
UniProt P27986, residues 2-724: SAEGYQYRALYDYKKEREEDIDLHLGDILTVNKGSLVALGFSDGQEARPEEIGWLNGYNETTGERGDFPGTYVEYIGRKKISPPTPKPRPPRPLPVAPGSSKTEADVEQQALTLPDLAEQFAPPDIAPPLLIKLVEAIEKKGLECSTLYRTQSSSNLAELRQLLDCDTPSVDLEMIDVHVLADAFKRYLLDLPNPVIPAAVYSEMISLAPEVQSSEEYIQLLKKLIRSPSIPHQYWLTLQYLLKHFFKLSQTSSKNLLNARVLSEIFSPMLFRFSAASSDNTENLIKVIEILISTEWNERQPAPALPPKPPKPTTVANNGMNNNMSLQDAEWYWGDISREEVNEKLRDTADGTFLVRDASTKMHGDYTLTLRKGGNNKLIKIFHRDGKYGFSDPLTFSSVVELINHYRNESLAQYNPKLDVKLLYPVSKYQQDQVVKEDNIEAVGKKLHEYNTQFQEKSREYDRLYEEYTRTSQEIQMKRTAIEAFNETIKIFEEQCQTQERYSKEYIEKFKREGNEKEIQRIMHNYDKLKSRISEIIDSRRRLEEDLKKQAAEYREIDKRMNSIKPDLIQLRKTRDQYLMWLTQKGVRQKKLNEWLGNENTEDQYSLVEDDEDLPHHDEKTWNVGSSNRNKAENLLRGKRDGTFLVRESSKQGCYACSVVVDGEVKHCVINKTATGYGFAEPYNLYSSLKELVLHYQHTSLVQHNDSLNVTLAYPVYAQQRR

Molecular target: T1, myc-tagged wild type LAT, stably expressed in Jurkat cells, C305 stimulated (human) (UniProt O43561)
T1 sequence (chain, tyrosine phosphorylated upon stimulation; sites not mapped): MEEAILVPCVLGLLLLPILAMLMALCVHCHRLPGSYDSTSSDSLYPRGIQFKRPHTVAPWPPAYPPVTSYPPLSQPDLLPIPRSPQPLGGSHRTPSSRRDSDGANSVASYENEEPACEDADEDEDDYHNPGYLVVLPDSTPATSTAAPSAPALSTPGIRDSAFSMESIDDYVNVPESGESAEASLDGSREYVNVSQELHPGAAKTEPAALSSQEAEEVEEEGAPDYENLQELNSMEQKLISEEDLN
Experiment: anti-myc immunoprecipitation from C305-stimulated stable Jurkat transfectants, immunoblot

binding | Substance
binds | Grb2, endogenous (293T cells and Jurkat T cells) (from UniProt P62993 1-217)
binds | p85 subunit of PI3K, endogenous, Jurkat T cells (from UniProt P27986 2-724)
